{"source": "patent US9688736B2", "about": "(Eli Lilly and Company, priority 2013, dated 2017)", "experiment": "general procedure: Fmoc solid-phase peptide synthesis; Fmoc-Glu(OtBu)-Wang polystyrene resin (Advanced ChemTech), approximately 0.9 mmol/g; DIC/HOBt", "details": "whole synthesis, 220 nm, scale 0.125 mmols, TFA salt converted to acetate salt", "note": "Square brackets hold non-standard residues; d marks the D form. Ends that are not written are not given here. Aib = CC(C)(N)C(=O)O"}
{"substance": "YSHGTFTSDVSKYLD[Aib]KKAAEFVAWLLEE", "values": [{"measurement": "final purity (method not given)", "result": ">95", "unit": "%"}]}
